The values that follow come from patent publication US8562947B2, “Oxidized avidin with high residency time in the treated tissues” (Sigma-Tau Industrie Farmaceutiche Riunite S.p.A., priority 2007, dated 2013).

A short description of the first data set: Isothermal Titration Calorimetry of avidin/ST2210 interaction. The following applies: ITC with ST2210. It counts as binding.
Turning to “OXavidinHABA 10 mM NaIO4: avidin oxidized with 10 mM NaIO4 in presence of 1 mM HABA”, the ΔS is −23.7 cal mol^−1 K^−1.
Take “OXavidin 20 mM NaIO4: avidin oxidized with 20 mM NaIO4 without HABA”: the ΔS is listed as 0.16 cal mol^−1 K^−1.
For the substance “OXavidinHABA 5 mM NaIO4: avidin oxidized with 5 mM NaIO4 in presence of 1 mM HABA”, the ΔS was −21.6 cal mol^−1 K^−1.
Same read-out and setting: then “OXavidinHABA 20 mM NaIO4: avidin oxidized with 20 mM NaIO4 in presence of 1 mM HABA”, with −28.0 cal mol^−1 K^−1.
As to “OXavidinHABA 1 mM NaIO4: avidin oxidized with 1 mM NaIO4 in presence of 1 mM HABA”, the ΔS is reported as −12.7 cal mol^−1 K^−1.
On the same count and under the same terms, then “WTavidin: wild type avidin, glycoprotein of about 68 kDa present in egg white, high affinity for biotin [reference compound]”, with −19.6 cal mol^−1 K^−1.

Another data set in a line: Tissue localization in cryosections of avidinated muscle (immunofluorescence, haematoxylin/eosin). The data set is classed as in vivo, Balb/c nude mice. The conditions noted are these: muscle sections, 24 hrs after i.m. injection. How it is done:
OXavidinHABA was evaluated for tissue localization in comparison to WTavidin in cryosections of avidinated tissues after intramuscular injection into one hind limb of Balb/c nude mice (Harlan, Udine Italy). The muscles were excised 24 hrs after treatment and serial cryosections were prepared from each sample. Each slide was stained with haematoxylin/eosin to evaluate the tissue morphology or incubated with a mouse anti avidin antibody (A5680, Sigma Aldrich, Italy) followed by anti mouse Alexa fluor 488 (Invitrogen, Milan Italy). Finally, slides were mounted with coverslips and observed under microscope.
“OXavidinHABA: HABA-saturated avidin oxidized with sodium periodate; NaIO4 concentration not stated at these places”: the “tissue localization (anti avidin immunofluorescence)” value is “strong homogenous distribution”.
“WTavidin: wild type avidin, glycoprotein of about 68 kDa present in egg white, high affinity for biotin [reference compound]”: the “tissue localization (anti avidin immunofluorescence)” value is “weak dotted localization”.
